In this assay the target is human PTPRZ1 extracellular portion (domains 1 plus 2) knocked in and shown on Ge518_PTPRZ1-KI cells (human) (UniProt P23471). Put plainly: flow cytometry on Ge518_PTPRZ1-KI cells, scFv conjugated to rabbit Fc, anti-rabbit IgG AlexaFluo488.

The chains behind the UniProt entries cited, without tags or fusion partners. Residues count along the entry.
UniProt P23471, residues 25-413: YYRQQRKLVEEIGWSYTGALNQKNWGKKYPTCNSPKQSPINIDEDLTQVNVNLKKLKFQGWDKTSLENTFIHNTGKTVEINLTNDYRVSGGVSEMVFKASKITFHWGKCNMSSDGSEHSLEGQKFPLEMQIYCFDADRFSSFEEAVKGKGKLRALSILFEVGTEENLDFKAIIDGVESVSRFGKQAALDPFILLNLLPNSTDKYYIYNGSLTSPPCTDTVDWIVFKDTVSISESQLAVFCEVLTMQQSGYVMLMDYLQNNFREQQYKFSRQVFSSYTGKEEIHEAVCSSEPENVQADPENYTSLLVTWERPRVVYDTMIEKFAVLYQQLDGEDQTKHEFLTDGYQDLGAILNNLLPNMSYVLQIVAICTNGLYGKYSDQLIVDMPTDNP

Results are given in words; binding and its absence hold for the method and conditions named. Some binding calls cover weakened binding; strength is not graded here. Sequences can lack the tags named with a protein.

B1: anti-PTPRZ1 scFv RRB471 conjugated to a rabbit Fc (Fc fusion)
scFv: MAEVQLVESGGGLVQPGGSLRLSCAASGFTFSSYSMNWVRQAPGKGLEWVSYISSSSSTIYYADSVKGRFTISRDNAKNSLYLQMNSLRAEDTAVYYCARPGYGDFPGAFDIWGQGTLVTVSSGGGGSGGGGSGGGGSTQSALTQPASVSGSPGQSITISCTGTSSDVGGYNYVSWYQQHPGKAPKLMIYEVSNRPSGVSNRFSGSKSGNTASLTISGLQAEDEADYYCSSYDWATYGSVFGGGTKLTVLGAA
notes: scFv conjugated to a rabbit Fc for flow cytometry; not shown: rabbit Fc
As to B1, the binding result is listed as “binds”.

The values above are taken from US20260201068A1 (UNIVERSIT DE GEN VE, published 2026).
